Experimental data published in US10550304B2, “Quaternary ammonium compounds and gas hydrate inhibitor compositions” (M-I DRILLING FLUIDS UK LIMITED, priority 2013, dated 2020).

Tests used:
[1] = Anti-agglomeration (AA) rocking cell test, standard conditions; parameters: key: A ranking of 5 is the best possible score and on occasion may mean there are no visible hydrates in the system at all; a ranking of 2 represents a marginal hydrate control scenario at best; A ranking of 1 is a failure; settings: 80 Bar gas pressure, additive free condensate, 2 volume % compound, 3 wt. % NaCl brine; scale 1 to 5
[2] = Anti-agglomeration (AA) rocking cell test, varying conditions (condition sets 1-8); settings: 8 condition sets of table 7

Compound: CCCCCCCCCCCCCC[P+](CCCC)(CCCC)CCCC.[Cl-] [TTPC, tributyl tetradecylphosphonium chloride]
- Ranking Stage 1 (Cooldown) [1]: 5
- Ranking Stage 2 (Flowing and shut-in) [1]: 5
- Ranking Stage 3 (Immediate restart) [1]: 5
- Ranking Stage 4 (Restart to end test) [1]: 5
- Number of tests (out of 8) at ranking 3 or above, Condensate ([2]; condensate): 5
- Number of tests (out of 8) at ranking 3 or above, Crude oil ([2]; crude oil): 4
